{"source": "PubChem BioAssay AID1159578 (Peter MacCallum Cancer Centre, 2015)", "test": "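Genome-wide hunt for genes controlling movement of lymphatic endothelial cells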 (primary screen)", "system": "human lymphatic endothelial cells", "reagents": "siRNA pool against human genes, 40 nM", "duration": "48 h after transfection", "measurement": "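Cells stained with dye and imaged after a scratch; covered wound area and nuclei counted, duplicates averaged, migration set against mock wells and turned into a robust z-score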", "reading the numbers": "migration robust z-score: higher = faster migration into the scratch; nuclei per well: higher = more cells in the well", "call rule": "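Migration changed when robust z exceeds 2 or falls below -2 and mean nuclei number is at least 3300; otherwise not called changed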", "calls": "active = migration changed; inactive = no migration change, or too few cells", "note": "Here is one part, drawn at random, of about 18,000 deposited reagents. About 1,030 of them (5.7%) were called active. 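Inactive calls also include pools with fewer than 3300 nuclei, whose migration was not assessed.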 Raw values are not corrected between plates. Entries without a mark were called inactive. Not all columns of the deposit are shown."}
{"Gene": "HOXD10", "migration robust z-score": 0.68, "nuclei per well, duplicate mean": 6220}
{"Gene": "PLCE1", "migration robust z-score": 0.42, "nuclei per well, duplicate mean": 5194}
{"Gene": "GRB2", "migration robust z-score": -0.65, "nuclei per well, duplicate mean": 5152}
{"Gene": "HCFC1R1", "migration robust z-score": 0.07, "nuclei per well, duplicate mean": 5748}
{"Gene": "ANXA4", "migration robust z-score": 0.44, "nuclei per well, duplicate mean": 3979}
{"Gene": "DEFB123", "migration robust z-score": -0.32, "nuclei per well, duplicate mean": 5222}
{"Gene": "CDY1", "migration robust z-score": -0.8, "nuclei per well, duplicate mean": 4746}
{"Gene": "GNA14", "migration robust z-score": 0.16, "nuclei per well, duplicate mean": 6063}
{"Gene": "TMEM268", "migration robust z-score": 1.81, "nuclei per well, duplicate mean": 4758}
{"Gene": "HES6", "migration robust z-score": 0.28, "nuclei per well, duplicate mean": 5494}
{"Gene": "LPAR2", "migration robust z-score": -1.45, "nuclei per well, duplicate mean": 4807}
{"Gene": "LELP1", "migration robust z-score": 1.42, "nuclei per well, duplicate mean": 5451}

Limited to “nuclei per well, duplicate mean”, for 2 of the entries above:
HOXD10	6220
PLCE1	5194
